{"source": "PubChem BioAssay AID504764, Drosophila RNAi Screening Center | 2011", "screen": "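Knock-downs that raise or lower a Notch target reporter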 (primary screen)", "cell system": "Drosophila Kc167 cells", "knock-down reagent": "long dsRNA against Drosophila genes", "time to read-out": "about 5 days (4 days dsRNA, then 24 h after transfection)", "treatment": "transfection of constitutively active membrane-tethered Notch lacking the extracellular domain, read 24 h later", "measured": "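Light from a Notch-responsive E(spl)m3 luciferase reporter under active Notch, with control-promoter and no-Notch reporter wells to normalise; raw counts from paired wells a and b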", "reading the numbers": "induced reporter light, run 1, well a and induced reporter light, run 1, well b: higher = more light from the Notch target reporter with active Notch; control promoter light, run 1, well a and control promoter light, run 1, well b: higher = more light from the viral control promoter (cell number, transfection, viability); uninduced reporter light, run 1, well a: higher = more light from the Notch target reporter without active Notch", "call rule": "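Hit if the duplicate-averaged log2 ratio of induced to control-promoter light gives a plate-wise z beyond ±2, or induced to uninduced beyond ±1.8; weak-control or discordant-duplicate wells dropped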", "calls": "active = modifier hit (raised or lowered Notch signal); inactive = not a hit", "note": "In all, the deposit lists about 22,000 reagents; below is a random part of those with a known target gene and a result. Of all reagents, 403 (1.9%) got an active call. 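Unnormalised raw counts per well; ratio z-scores behind the hit calls and whether each hit raises or lowers signal are not deposited.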 Reagents against one gene are numbered here. Names joined by + are all predicted targets of the reagent. The record does not give: the amount of reagent."}
{"target gene": "EMC4 (ER membrane protein complex subunit 4)", "dsRNA no.": 1, "induced reporter light, run 1, well a": 1.09e5, "induced reporter light, run 1, well b": 92660, "control promoter light, run 1, well a": 75435, "control promoter light, run 1, well b": 65600, "uninduced reporter light, run 1, well a": 5485, "outcome": "inactive"}
{"target gene": "ND-MLRQ (NADH dehydrogenase (ubiquinone) MLRQ subunit)", "dsRNA no.": 1, "induced reporter light, run 1, well a": 2.25e5, "induced reporter light, run 1, well b": 2.10e5, "control promoter light, run 1, well a": 2.67e5, "control promoter light, run 1, well b": 2.60e5, "uninduced reporter light, run 1, well a": 16520, "outcome": "inactive"}
{"target gene": "CG15515", "dsRNA no.": 1, "induced reporter light, run 1, well a": 1.15e5, "induced reporter light, run 1, well b": 1.33e5, "control promoter light, run 1, well a": 2.03e5, "control promoter light, run 1, well b": 1.71e5, "uninduced reporter light, run 1, well a": 11790, "outcome": "inactive"}
{"target gene": "CG42342", "dsRNA no.": 1, "induced reporter light, run 1, well a": 1.01e5, "induced reporter light, run 1, well b": 1.01e5, "control promoter light, run 1, well a": 1.22e5, "control promoter light, run 1, well b": 1.28e5, "uninduced reporter light, run 1, well a": 7190, "outcome": "inactive"}
{"target gene": "CG42342", "dsRNA no.": 2, "induced reporter light, run 1, well a": 8300, "induced reporter light, run 1, well b": 7235, "control promoter light, run 1, well a": 9505, "control promoter light, run 1, well b": 8765, "uninduced reporter light, run 1, well a": 3770, "outcome": "inactive"}
{"target gene": "CG42342", "dsRNA no.": 3, "induced reporter light, run 1, well a": 21390, "induced reporter light, run 1, well b": 20220, "control promoter light, run 1, well a": 15950, "control promoter light, run 1, well b": 16055, "uninduced reporter light, run 1, well a": 1810, "outcome": "inactive"}
{"target gene": "CG42342", "dsRNA no.": 4, "induced reporter light, run 1, well a": 2.97e5, "induced reporter light, run 1, well b": 2.59e5, "control promoter light, run 1, well a": 2.57e5, "control promoter light, run 1, well b": 2.39e5, "uninduced reporter light, run 1, well a": 20018, "outcome": "inactive"}
{"target gene": "CG42342", "dsRNA no.": 5, "induced reporter light, run 1, well a": 2.67e5, "induced reporter light, run 1, well b": 3.15e5, "control promoter light, run 1, well a": 2.78e5, "control promoter light, run 1, well b": 2.51e5, "uninduced reporter light, run 1, well a": 21970, "outcome": "inactive"}
{"target gene": "nom (numerous disordered muscles)", "dsRNA no.": 1, "induced reporter light, run 1, well a": 1.08e5, "induced reporter light, run 1, well b": 1.07e5, "control promoter light, run 1, well a": 1.06e5, "control promoter light, run 1, well b": 81530, "uninduced reporter light, run 1, well a": 8135, "outcome": "inactive"}
{"target gene": "trus (toys are us)", "dsRNA no.": 1, "induced reporter light, run 1, well a": 46195, "induced reporter light, run 1, well b": 34770, "control promoter light, run 1, well a": 55530, "control promoter light, run 1, well b": 41405, "uninduced reporter light, run 1, well a": 4740, "outcome": "inactive"}
{"target gene": "lobo (lost boys)", "dsRNA no.": 1, "induced reporter light, run 1, well a": 1.70e5, "induced reporter light, run 1, well b": 1.54e5, "control promoter light, run 1, well a": 1.96e5, "control promoter light, run 1, well b": 1.65e5, "uninduced reporter light, run 1, well a": 15165, "outcome": "inactive"}
{"target gene": "lobo (lost boys)", "dsRNA no.": 2, "induced reporter light, run 1, well a": 1.39e5, "induced reporter light, run 1, well b": 1.29e5, "control promoter light, run 1, well a": 1.61e5, "control promoter light, run 1, well b": 1.80e5, "uninduced reporter light, run 1, well a": 11005, "outcome": "inactive"}
{"target gene": "CG14535", "dsRNA no.": 1, "induced reporter light, run 1, well a": 1.28e5, "induced reporter light, run 1, well b": 1.68e5, "control promoter light, run 1, well a": 1.02e5, "control promoter light, run 1, well b": 1.23e5, "uninduced reporter light, run 1, well a": 21250, "outcome": "inactive"}
{"target gene": "Obp50e (Odorant-binding protein 50e)", "dsRNA no.": 1, "induced reporter light, run 1, well a": 76195, "induced reporter light, run 1, well b": 97055, "control promoter light, run 1, well a": 1.02e5, "control promoter light, run 1, well b": 99485, "uninduced reporter light, run 1, well a": 7588, "outcome": "inactive"}
{"target gene": "Tsr1 (Tsr1 ribosome assembly factor)", "dsRNA no.": 1, "induced reporter light, run 1, well a": 96750, "induced reporter light, run 1, well b": 88250, "control promoter light, run 1, well a": 65715, "control promoter light, run 1, well b": 56515, "uninduced reporter light, run 1, well a": 6370, "outcome": "inactive"}
{"target gene": "CG33969 + fbl", "dsRNA no.": 1, "induced reporter light, run 1, well a": 82820, "induced reporter light, run 1, well b": 77890, "control promoter light, run 1, well a": 1.08e5, "control promoter light, run 1, well b": 94275, "uninduced reporter light, run 1, well a": 8115, "outcome": "inactive"}
{"target gene": "ind (intermediate neuroblasts defective)", "dsRNA no.": 1, "induced reporter light, run 1, well a": 11695, "induced reporter light, run 1, well b": 9028, "control promoter light, run 1, well a": 13030, "control promoter light, run 1, well b": 13555, "uninduced reporter light, run 1, well a": 3990, "outcome": "inactive"}
{"target gene": "GluRIIE (Glutamate receptor IIE)", "dsRNA no.": 1, "induced reporter light, run 1, well a": 97200, "induced reporter light, run 1, well b": 1.03e5, "control promoter light, run 1, well a": 1.03e5, "control promoter light, run 1, well b": 1.20e5, "uninduced reporter light, run 1, well a": 10505, "outcome": "inactive"}
{"target gene": "repo (reversed polarity)", "dsRNA no.": 1, "induced reporter light, run 1, well a": 43080, "induced reporter light, run 1, well b": 43185, "control promoter light, run 1, well a": 40100, "control promoter light, run 1, well b": 33835, "uninduced reporter light, run 1, well a": 7345, "outcome": "inactive"}
{"target gene": "fne (found in neurons)", "dsRNA no.": 1, "induced reporter light, run 1, well a": 1.26e5, "induced reporter light, run 1, well b": 1.36e5, "control promoter light, run 1, well a": 2.59e5, "control promoter light, run 1, well b": 2.50e5, "uninduced reporter light, run 1, well a": 10130, "outcome": "inactive"}
{"target gene": "CG7080", "dsRNA no.": 1, "induced reporter light, run 1, well a": 1.40e5, "induced reporter light, run 1, well b": 1.54e5, "control promoter light, run 1, well a": 2.07e5, "control promoter light, run 1, well b": 2.24e5, "uninduced reporter light, run 1, well a": 14600, "outcome": "inactive"}
{"target gene": "CG5050", "dsRNA no.": 1, "induced reporter light, run 1, well a": 1.28e5, "induced reporter light, run 1, well b": 1.22e5, "control promoter light, run 1, well a": 1.35e5, "control promoter light, run 1, well b": 1.29e5, "uninduced reporter light, run 1, well a": 10955, "outcome": "inactive"}
{"target gene": "CG4627", "dsRNA no.": 1, "induced reporter light, run 1, well a": 86230, "induced reporter light, run 1, well b": 1.08e5, "control promoter light, run 1, well a": 1.15e5, "control promoter light, run 1, well b": 1.10e5, "uninduced reporter light, run 1, well a": 9640, "outcome": "inactive"}
{"target gene": "BI-1 (Bax Inhibitor-1)", "dsRNA no.": 1, "induced reporter light, run 1, well a": 96885, "induced reporter light, run 1, well b": 83290, "control promoter light, run 1, well a": 70300, "control promoter light, run 1, well b": 20955, "uninduced reporter light, run 1, well a": 7495, "outcome": "inactive"}

Look-ups from the list:
For “outcome”, lobo (lost boys) #2 is entered as inactive
CG42342 #1, outcome → inactive
Value for CG14535 in “uninduced reporter light, run 1, well a”: 21250
lobo (lost boys) #1, induced reporter light, run 1, well b = 1.54e5
